Results are given in words; binding and its absence hold for the method and conditions named. In cells and extracts the contact can be indirect. Some results given as binding are weak or reduced against the parent protein; the word gives no strength. For some assays here: Tags and fused reporters may be left off the sequences shown.
Key:
[1] = biological target: PEAK1, endogenous in MDA-MB-231 (human (endogenous in MDA-MB-231)) (UniProt Q9H792); assay: proximity ligation; Duolink PLA on fixed, permeabilised MDA-MB-231 cells, endogenous proteins; si-PEAK1, si-PEAK2 or si-Control
[2] = biological target: T1, PEAK2, endogenous in MDA-MB-231 (human (endogenous in MDA-MB-231)) (UniProt Q86YV5); assay: as above
T1 sequence: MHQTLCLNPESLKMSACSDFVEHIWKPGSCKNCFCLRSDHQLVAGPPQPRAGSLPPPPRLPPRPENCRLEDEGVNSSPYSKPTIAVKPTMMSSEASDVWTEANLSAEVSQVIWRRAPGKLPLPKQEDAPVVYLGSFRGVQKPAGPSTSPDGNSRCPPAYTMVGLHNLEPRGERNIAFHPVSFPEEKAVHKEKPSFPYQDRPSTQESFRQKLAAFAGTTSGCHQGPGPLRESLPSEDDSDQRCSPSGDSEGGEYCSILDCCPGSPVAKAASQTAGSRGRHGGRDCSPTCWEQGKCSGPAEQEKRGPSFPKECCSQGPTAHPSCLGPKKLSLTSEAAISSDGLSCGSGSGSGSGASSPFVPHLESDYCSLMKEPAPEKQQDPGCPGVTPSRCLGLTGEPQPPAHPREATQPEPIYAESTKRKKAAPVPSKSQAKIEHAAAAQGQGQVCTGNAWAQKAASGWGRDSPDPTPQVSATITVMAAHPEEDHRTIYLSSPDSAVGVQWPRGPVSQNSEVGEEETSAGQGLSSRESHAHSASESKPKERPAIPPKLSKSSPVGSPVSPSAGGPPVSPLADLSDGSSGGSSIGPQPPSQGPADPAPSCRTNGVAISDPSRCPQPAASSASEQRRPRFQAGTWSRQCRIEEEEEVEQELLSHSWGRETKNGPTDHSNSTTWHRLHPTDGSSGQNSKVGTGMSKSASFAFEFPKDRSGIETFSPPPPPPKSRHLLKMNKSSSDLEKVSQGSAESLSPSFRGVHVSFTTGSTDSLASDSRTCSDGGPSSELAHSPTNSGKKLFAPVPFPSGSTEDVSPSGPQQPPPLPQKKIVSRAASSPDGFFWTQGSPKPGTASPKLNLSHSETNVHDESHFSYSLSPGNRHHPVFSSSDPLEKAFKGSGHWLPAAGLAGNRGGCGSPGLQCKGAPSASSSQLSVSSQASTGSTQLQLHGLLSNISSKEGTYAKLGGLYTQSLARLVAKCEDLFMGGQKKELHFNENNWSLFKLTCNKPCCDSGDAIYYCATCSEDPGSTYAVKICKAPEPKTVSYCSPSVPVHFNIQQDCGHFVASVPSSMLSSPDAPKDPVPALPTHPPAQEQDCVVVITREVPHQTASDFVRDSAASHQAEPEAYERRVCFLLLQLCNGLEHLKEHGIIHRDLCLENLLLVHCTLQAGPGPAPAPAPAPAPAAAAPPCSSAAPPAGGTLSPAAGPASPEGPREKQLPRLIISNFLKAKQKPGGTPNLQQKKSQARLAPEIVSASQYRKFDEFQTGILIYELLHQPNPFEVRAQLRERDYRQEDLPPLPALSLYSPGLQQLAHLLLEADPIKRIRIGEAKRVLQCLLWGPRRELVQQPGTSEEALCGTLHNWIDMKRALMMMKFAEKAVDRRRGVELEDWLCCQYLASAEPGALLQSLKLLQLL

Sequences of proteins named here, by UniProt entry; tags and fusion partners are left off.
UniProt Q13557: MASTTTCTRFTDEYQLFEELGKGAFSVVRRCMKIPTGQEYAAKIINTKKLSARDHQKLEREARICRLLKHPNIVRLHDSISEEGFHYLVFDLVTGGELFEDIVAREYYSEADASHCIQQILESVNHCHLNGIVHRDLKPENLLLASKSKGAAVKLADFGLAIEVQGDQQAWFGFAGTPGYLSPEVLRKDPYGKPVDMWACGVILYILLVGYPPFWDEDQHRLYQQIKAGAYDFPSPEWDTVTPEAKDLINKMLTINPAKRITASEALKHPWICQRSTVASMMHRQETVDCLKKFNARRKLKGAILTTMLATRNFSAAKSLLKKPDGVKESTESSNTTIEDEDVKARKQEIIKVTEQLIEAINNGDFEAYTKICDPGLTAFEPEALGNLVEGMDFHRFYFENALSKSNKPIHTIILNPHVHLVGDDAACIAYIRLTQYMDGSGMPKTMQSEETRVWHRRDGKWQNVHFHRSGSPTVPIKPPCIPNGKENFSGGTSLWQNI
UniProt Q13555: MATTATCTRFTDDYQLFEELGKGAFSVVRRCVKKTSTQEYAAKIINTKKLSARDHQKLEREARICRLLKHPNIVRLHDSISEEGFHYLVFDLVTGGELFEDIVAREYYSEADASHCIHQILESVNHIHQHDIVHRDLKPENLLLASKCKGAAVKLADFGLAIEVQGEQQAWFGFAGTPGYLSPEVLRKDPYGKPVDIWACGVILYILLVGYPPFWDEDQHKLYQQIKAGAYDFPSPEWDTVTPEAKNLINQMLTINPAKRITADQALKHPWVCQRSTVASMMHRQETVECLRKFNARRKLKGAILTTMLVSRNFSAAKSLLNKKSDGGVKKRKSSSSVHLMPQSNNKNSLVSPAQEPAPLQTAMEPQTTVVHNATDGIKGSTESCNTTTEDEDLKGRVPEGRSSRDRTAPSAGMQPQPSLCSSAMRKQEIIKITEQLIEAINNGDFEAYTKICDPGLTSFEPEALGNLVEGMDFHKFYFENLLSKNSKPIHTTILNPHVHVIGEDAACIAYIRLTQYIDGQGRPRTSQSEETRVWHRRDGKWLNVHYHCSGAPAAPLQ
UniProt P46109: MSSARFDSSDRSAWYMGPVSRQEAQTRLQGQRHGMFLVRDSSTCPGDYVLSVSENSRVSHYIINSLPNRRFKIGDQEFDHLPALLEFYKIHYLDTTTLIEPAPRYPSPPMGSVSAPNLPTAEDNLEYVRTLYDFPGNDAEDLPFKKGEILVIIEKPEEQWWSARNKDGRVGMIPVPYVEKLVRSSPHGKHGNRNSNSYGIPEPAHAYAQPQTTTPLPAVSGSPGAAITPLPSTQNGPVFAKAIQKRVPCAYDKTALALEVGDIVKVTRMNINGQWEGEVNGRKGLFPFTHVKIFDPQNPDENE
UniProt P62993: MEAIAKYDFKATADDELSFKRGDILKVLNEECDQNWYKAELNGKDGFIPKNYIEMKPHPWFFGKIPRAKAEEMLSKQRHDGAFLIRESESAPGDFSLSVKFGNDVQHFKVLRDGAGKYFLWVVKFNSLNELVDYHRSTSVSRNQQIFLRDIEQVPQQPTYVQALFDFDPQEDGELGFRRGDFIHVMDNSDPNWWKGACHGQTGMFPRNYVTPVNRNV

[3] = biological target: Flag-tagged PEAK1 R297A/L301A/R303A (human) (UniProt Q9H792); assay: co-IP; Western blotting of PEAK1 IPs, WT against AAA and EE CIM mutants (Supplementary Fig. 7B–D); cell line not shown
[4] = biological target: Flag-tagged PEAK1 R297E/R303E (human) (UniProt Q9H792); assay: as above
[5] = biological target: Flag-tagged WT PEAK1 (MDA-MB-231) (human) (UniProt Q9H792); assay: as above
[6] = biological target: V1- or V2-labelled fusion of PEAK1 (human) (UniProt Q9H792); assay: split reporter; BiCAP: V1- and V2-labelled PEAK1/PEAK2 co-expressed in HEK293T; dimers with recombined Venus purified on GFP-Trap_A beads
[7] = biological target: T2, Flag-tagged PEAK1 N-term (1-324 amino acids) (human) (UniProt Q9H792); assay: co-IP; Flag-tagged PEAK1 and deletion mutants expressed in HEK293T; anti-FLAG M2 agarose IP from lysate (normal lysis buffer), 4 °C 2–4 h; Western blot for CAMK2D or CAMK2G
T2 sequence: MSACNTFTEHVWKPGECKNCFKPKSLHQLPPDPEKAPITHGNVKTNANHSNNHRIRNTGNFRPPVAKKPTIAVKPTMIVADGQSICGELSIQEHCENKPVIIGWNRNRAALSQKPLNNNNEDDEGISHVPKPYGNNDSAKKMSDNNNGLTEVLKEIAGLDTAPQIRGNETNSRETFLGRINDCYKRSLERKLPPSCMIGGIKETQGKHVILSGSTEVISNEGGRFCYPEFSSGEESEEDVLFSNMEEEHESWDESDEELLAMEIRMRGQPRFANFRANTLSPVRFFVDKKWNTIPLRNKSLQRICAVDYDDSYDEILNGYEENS

[8] = biological target: Flag-tagged PEAK1 WT (HEK293T) (human) (UniProt Q9H792); assay: as above
[9] = biological target: Flag-tagged PEAK1 Δ261–300 (human) (UniProt Q9H792); assay: as above
[10] = biological target: Flag-tagged PEAK1 Δ261–324 (human) (UniProt Q9H792); assay: as above
[11] = biological target: Flag-tagged PEAK1 Δ301–324 (human) (UniProt Q9H792); assay: as above
[12] = biological target: V1- or V2-labelled fusion of PEAK2 (UniProt Q86YV5); assay: split reporter; BiCAP: V1- and V2-labelled PEAK1/PEAK2 co-expressed in HEK293T; dimers with recombined Venus purified on GFP-Trap_A beads
[13] = biological target: Flag-tagged WT PEAK1 (MDA-MB-231) (human) (UniProt Q9H792); assay: co-IP; Flag-tagged WT PEAK1 or mutants expressed in MDA-MB-231 cells; association with endogenous PEAK2 by IP/Western

“CAMK2D, endogenous in MDA-MB-231 (from UniProt Q13557 1-499) (enzyme)” was tested, and the binding [1] was “binds” and the binding [2] was “binds”.

“CAMK2G, endogenous in MDA-MB-231 (from UniProt Q13555 1-558) (enzyme)” was tested, and the binding [1] was “binds” and the binding [2] was “binds”.

With Crk-L (from UniProt P46109 1-303) the binding [3] was “binds”, the binding [4] was “binds” and the binding [5] was “binds”.

For “Grb2 (partner of PEAK1 in Supplementary Fig. 7B) (from UniProt P62993 1-217)”, the binding [3] was “binds”, the binding [4] was “binds” and the binding [5] was “binds”.

“V1- or V2-labelled fusion of PEAK1 (from UniProt Q9H792 1-1746)” was tested, and the binding [6] was “binds”.

With “calcium/calmodulin-dependent protein kinase 2 (CAMK2)D, endogenous in HEK293T (from UniProt Q13557 1-499) (enzyme)” the binding [7] was “no binding”, the binding [8] was “binds” and the binding [9] was “no binding”. The binding [10] was “no binding” and the binding [11] was “no binding”.

With “calcium/calmodulin-dependent protein kinase 2 (CAMK2)G, endogenous in HEK293T (from UniProt Q13555 1-558) (enzyme)” the binding [8] was “binds”.

B1: V1- or V2-labelled fusion of PEAK2 (protein, UniProt Q86YV5 1-1406)
chain: T1 sequence
For B1, the binding [6] was “binds” and the binding [12] was “binds”.

B2: PEAK2, endogenous in MDA-MB-231 (protein, UniProt Q86YV5 1-1406)
chain: T1 sequence
B2 was tested, and the binding [13] was “binds”.

Reference: publication PMC11845518
